The target of this assay is T1, ATG9A (mouse (endogenous in adult mouse brain)) (UniProt Q68FE2).
T1 sequence: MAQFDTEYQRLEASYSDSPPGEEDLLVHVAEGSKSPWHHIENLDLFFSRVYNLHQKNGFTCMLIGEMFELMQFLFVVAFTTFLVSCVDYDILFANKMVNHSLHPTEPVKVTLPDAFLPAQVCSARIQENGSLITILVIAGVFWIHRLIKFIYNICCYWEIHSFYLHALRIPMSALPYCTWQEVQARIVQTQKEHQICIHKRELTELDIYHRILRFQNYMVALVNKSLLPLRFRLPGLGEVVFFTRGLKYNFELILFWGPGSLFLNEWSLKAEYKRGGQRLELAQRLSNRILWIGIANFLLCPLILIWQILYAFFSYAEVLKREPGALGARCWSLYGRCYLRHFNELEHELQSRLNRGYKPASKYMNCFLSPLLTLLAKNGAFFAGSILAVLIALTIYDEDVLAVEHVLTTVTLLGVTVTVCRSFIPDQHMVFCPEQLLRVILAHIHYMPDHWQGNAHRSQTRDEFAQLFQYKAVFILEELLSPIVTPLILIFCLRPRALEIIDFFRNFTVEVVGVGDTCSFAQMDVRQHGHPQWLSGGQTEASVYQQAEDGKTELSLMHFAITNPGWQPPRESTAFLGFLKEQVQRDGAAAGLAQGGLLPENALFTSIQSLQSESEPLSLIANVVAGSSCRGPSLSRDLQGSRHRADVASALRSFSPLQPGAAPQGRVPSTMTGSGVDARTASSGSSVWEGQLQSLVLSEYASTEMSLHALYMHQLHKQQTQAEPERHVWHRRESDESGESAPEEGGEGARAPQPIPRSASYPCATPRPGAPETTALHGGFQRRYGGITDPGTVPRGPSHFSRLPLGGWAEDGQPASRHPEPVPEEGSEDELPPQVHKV
Nature of the assay: co-IP; endogenous proteins; 5 mg mouse brain lysate with 1 ug antibody in HEPES buffer (50 mM HEPES, 0.5% Triton X-100, 150 mM NaCl, 1 mM EDTA) for 12 h at 4°C; protein A agarose beads; rabbit IgG control with WT lysate; western blot. On the technique in general: In western blotting, separated proteins are transferred to a membrane and probed.

Results are given in words; binding and its absence hold for the method and conditions named. In cells and extracts the contact can be indirect. Some entries that bind do so weakly or less than the wild type.

From article PMC6999640 come the findings set out here.

B1: adaptor-related protein complex AP-4, epsilon 1 (protein, UniProt Q80V94 1-1122)
chain: MSDMVERTLTALPGLFLQNQLGGPAASRAPFFSRLGGLIRGVTALSSKHEEEKLIQQELSSLKATVSAPTTTLKTMKECMVRLIYCEMLGYDASFGYIHAIKLAQQGNLLEKRVGYLAVSLFLHESHELLLLLVNTVVKDLQSTNLVEVCMALTVVSQIFPREMIPAVLPLIEDKLQHSKEIIRRKAVLALYKFYLIAPNQVQHIHTKFRKALCDRDVGVMAASLHIYLRMIKENASGYKDLTESFVTILKQVVGGKLPVEFSYHSVPAPWLQIQLLRILGLLGKDDERTSELMYDVLDESLRRAELNHNVTYAILFECVHTIYSIYPKSELLEKAAKCIGKFVLSPKINLKYLGLKALTYVIQQDPSLALQHQITIIECLDHPDPIIKRETLELLYRITNAQNVVVIVQKMLEYLHQSKEEHIIISLVGRIAELAEKYAPDNVWFIQTMNAVFSVGGDVMHPDILSNFLRLLAEGFDDETEDQQLRLYAVQSYLTLLDMENTFYPQRFLQVMSWVLGEYSYLLDKESPEEVITRLYKLLMSDSISSETKAWLFAAVTKLTPQAHSSPLVEKLIQEFTVSLNTCLRQHAFELKHLHENTELMKSLLQGAQNCEDIVADASLSFLDGFVAEGLSQGAAPYKPHHQRQEEQLSQEKVLNFEPYGLSFSSSGFTGRQSPAGISLGSDISGNSAETGLKETSSLKMEGIKKLWGKEGYLPKKESGTGDKPEASHVPAEGATVENVDQATTRKDQAQGHIPSTEEKEKQLLASSLFVGLGPENTVDLLGKADVVSHKFRRKSKLKVAQSDKTPSAPTAPCSALSLGSDVAGGDEDGLSAVDRGDGELSSELFRSESLSGPPSAEKLESVSLPVPSLFADNNMEVFNPPSSSATSTVKEETPECRHSGLVEICSNEAVSVSSYKVWRDDCLLVIWAVTSKTDSEFTDAQLEIFPVENFKIIEQPECSSPVIETERTKSFQYSVQMESPCIEGTLSGFIKYQMMDTHSVQLEFSMNLPLLDFIRPLKISTEDFGKLWLSFANDVKQTIKISEPGVALTSVLTELQQNLRLRVIDVIGNEGLLACKLLPSTPCVLHCRVHADAVALWFRSSSSVLSDYLSCHCQKVMQTS
In the case of B1, the binding entry is “binds”.
